Assay results: patent EP0299975B1, “COMPOSITION FOR ARRESTING ANGIOGENESIS AND CAPILLARY, CELL OR MEMBRANE LEAKAGE” (Angiogenics Limited, priority 1986, dated 1987)
At least one structure is not confirmed: it was looked up by name or label, or the drawing left a doubt.

Tested on: angiogenesis
Assay: Steroids tested with heparin and heparin fragments against angiogenesis
Description: Deltacortisone has not previously been disclosed for use in combination with heparin fragments generally, or pentosan polysulfate.

For C[C@]12CC[C@@H]3c4ccc(O)cc4CC[C@H]3[C@@H]1CCC2=O [estrone], the overcoming angiogenesis was “ineffective”.
